{
  "source": "paper PMC10657444",
  "about": "“Design and evaluation of tadpole-like conformational antimicrobial peptides” (Communications Biology, 2023)",
  "key": {"MRSA USA 300": {"system": "MRSA USA 300", "experiment": "Membrane depolarization assay, DiSC3(5)", "type": "cell-based, Staphylococcus aureus", "procedure": "MRSA USA 300 and K. pneumoniae ATCC 700603 were inoculated into 5 mL of LB and shaken at 37°C and 225 rpm to OD600 ≈ 0.5 (i.e., mid-logarithmic phase). Bacteria were collected by centrifugation at 8000 rpm for 5 min, and washed twice with assay buffer (5 mM HEPES, 20 mM glucose, 10 mM KCl, pH 7.2). Bacteria were resuspended in the assay buffer to OD595 ≈ 0.1. DiSC3(5) was added to the cells at final concentration of 0.3 µM, wrapped with aluminum foil, and incubated at 37°C, until a stable fluorescence was observed. Two microliter of compound or DMSO were transferred into 96-well black walled polystyrene plates, to which was added 98 µL per well of the dye-saturated bacterial cells to initiate the reaction. The final concentration of HT2 and RI-HT2 were 1 ×, 2 ×, 4 × and 8 × MIC. Plates were immediately read on an Envison at λex = 622 nm/ λem = 670 nm with a kinetic program (reading every 1 min for 10 min) until the maximal intensity achieved was observed."}, "[1]": {"system": "K. pneumoniae ATCC 700603", "experiment": "Membrane permeability, SYTOX Green", "type": "cell-based, Klebsiella pneumoniae", "procedure": "Fluorescent probe SYTOX^TM Green (Invitrogen/ Life Technologies, S7020) was used to analyze the effect of HT2 and RI-HT2 on membrane permeability of MRSA USA 300 and K. pneumoniae ATCC 700603 as described elsewhere. SYTOX^TM Green is a DNA binding dye that is fluorescent when bound to nucleic acids and only enters cells with compromised plasma membranes. MRSA USA 300 and K. pneumoniae ATCC 700603 were cultured in LB broth to mid log phase at 37 °C and washed with PBS and resuspended (OD595 ≈ 0.1) in the same buffer. SYTOX^TM Green was added into the cell suspension with a final concentration of 5 μM and being kept in dark for 20 min. 98 µL pre-treated cell suspension was transferred into wells of 96-well glass black plates. Then, 2 µL of compound or DMSO were added to initiate the reaction. The final concentrations of HT2 and RI-HT2 were 1 ×, 2 ×, 4 × and 8 × MIC. Fluorescence strength was measured with excitation/emission wavelength of 485/528 nm every 5 min for 60 min."}},
  "note": "Values joined by “and” are separate entries in the source; they are usually repeats but may differ in a detail not shown here. Equal entries are not always repeated. The source gives many values for each of these; only a part stands here. Non-standard residues stand in square brackets, D forms with d. Residues, ends and D or L forms follow the SMILES beside them.",
  "data": [
    {"smiles": "CC[C@@H](C)[C@@H](NC(=O)[C@@H](Cc1ccccc1)NC(=O)[C@@H](Cc1ccccc1)NC(=O)[C@@H](Cc1ccccc1)NC(=O)[C@H](N)Cc1ccccc1)C(=O)N[C@H](CCCNC(=N)N)C(=O)N[C@H](CCCNC(=N)N)C(=O)N[C@H](CC(C)C)C(=O)N[C@H](Cc1ccccc1)C(=O)N[C@H](CCCNC(=N)N)C(N)=O", "note": "[RI-HT2] (H-[dF][dF][dF][dF][dI][dR][dR][dL][dF][dR]-NH2; N-terminus assumed)", "values": [
      {"measurement": "Fluorescence intensity", "setting": "MRSA USA 300; 2 × MIC, time 0 min", "value": "504 and 513 and 519"},
      {"measurement": "Fluorescence intensity", "setting": "MRSA USA 300; 2 × MIC, time 2 min", "value": "504 and 511 and 498"},
      {"measurement": "Fluorescence intensity", "setting": "MRSA USA 300; 2 × MIC, time 3 min", "value": "472 and 496 and 479"},
      {"measurement": "Fluorescence intensity", "setting": "MRSA USA 300; 2 × MIC, time 4 min", "value": "488 and 491 and 486"},
      {"measurement": "Fluorescence intensity", "setting": "MRSA USA 300; 2 × MIC, time 5 min", "value": "497 and 499 and 489"},
      {"measurement": "Fluorescence intensity", "setting": "MRSA USA 300; 2 × MIC, time 6 min", "value": "508 and 499 and 482"},
      {"measurement": "Fluorescence intensity", "setting": "MRSA USA 300; 2 × MIC, time 7 min", "value": "484 and 493 and 479"},
      {"measurement": "Fluorescence intensity", "setting": "MRSA USA 300; 2 × MIC, time 8 min", "value": "487 and 501"},
      {"measurement": "Fluorescence intensity", "setting": "MRSA USA 300; 2 × MIC, time 9 min", "value": "480 and 490 and 474"},
      {"measurement": "Fluorescence intensity", "setting": "MRSA USA 300; 2 × MIC, time 10 min", "value": "501 and 500 and 473"},
      {"measurement": "Fluorescence intensity", "setting": "MRSA USA 300; 4 × MIC, time 0 min", "value": "533 and 527 and 530"},
      {"measurement": "Fluorescence intensity", "setting": "MRSA USA 300; 4 × MIC, time 2 min", "value": "524 and 523 and 522"},
      {"measurement": "Fluorescence intensity", "setting": "MRSA USA 300; 4 × MIC, time 3 min", "value": "601 and 580"},
      {"measurement": "Fluorescence intensity", "setting": "MRSA USA 300; 4 × MIC, time 4 min", "value": "492 and 500 and 513"},
      {"measurement": "Fluorescence intensity", "setting": "MRSA USA 300; 4 × MIC, time 5 min", "value": "512 and 496 and 490"},
      {"measurement": "Fluorescence intensity", "setting": "MRSA USA 300; 4 × MIC, time 6 min", "value": "493 and 486 and 463"},
      {"measurement": "Fluorescence intensity", "setting": "MRSA USA 300; 4 × MIC, time 7 min", "value": "496 and 476 and 456"},
      {"measurement": "Fluorescence intensity", "setting": "MRSA USA 300; 4 × MIC, time 8 min", "value": "480 and 476 and 436"},
      {"measurement": "Fluorescence intensity", "setting": "MRSA USA 300; 4 × MIC, time 9 min", "value": "484 and 487 and 446"},
      {"measurement": "Fluorescence intensity", "setting": "MRSA USA 300; 4 × MIC, time 10 min", "value": "483 and 441"},
      {"measurement": "Fluorescence intensity", "setting": "MRSA USA 300; 8 × MIC, time 0 min", "value": "535 and 554 and 539"},
      {"measurement": "Fluorescence intensity", "setting": "MRSA USA 300; 8 × MIC, time 2 min", "value": "538 and 545 and 530"},
      {"measurement": "Fluorescence intensity", "setting": "MRSA USA 300; 8 × MIC, time 3 min", "value": "1230 and 1256"},
      {"measurement": "Fluorescence intensity", "setting": "MRSA USA 300; 8 × MIC, time 4 min", "value": "1300 and 1355 and 1369"},
      {"measurement": "Fluorescence intensity", "setting": "MRSA USA 300; 8 × MIC, time 5 min", "value": "1673 and 1720 and 1652"},
      {"measurement": "Fluorescence intensity", "setting": "MRSA USA 300; 8 × MIC, time 6 min", "value": "1716 and 1691 and 1633"},
      {"measurement": "Fluorescence intensity", "setting": "MRSA USA 300; 8 × MIC, time 7 min", "value": "1735 and 1736 and 1641"},
      {"measurement": "Fluorescence intensity", "setting": "MRSA USA 300; 8 × MIC, time 8 min", "value": "1678 and 1731 and 1675"},
      {"measurement": "Fluorescence intensity", "setting": "MRSA USA 300; 8 × MIC, time 9 min", "value": "1728 and 1707 and 1732"},
      {"measurement": "Fluorescence intensity", "setting": "MRSA USA 300; 8 × MIC, time 10 min", "value": "1700 and 1684 and 1743"},
      {"measurement": "Fluorescence intensity", "setting": "MRSA USA 300; MIC, time 0 min", "value": "510 and 525 and 523"},
      {"measurement": "Fluorescence intensity", "setting": "MRSA USA 300; MIC, time 2 min", "value": "524 and 514 and 525"},
      {"measurement": "Fluorescence intensity", "setting": "MRSA USA 300; MIC, time 3 min", "value": "472 and 488 and 481"},
      {"measurement": "Fluorescence intensity", "setting": "MRSA USA 300; MIC, time 4 min", "value": "477 and 488 and 491"},
      {"measurement": "Fluorescence intensity", "setting": "MRSA USA 300; MIC, time 5 min", "value": "476 and 492 and 484"},
      {"measurement": "Fluorescence intensity", "setting": "MRSA USA 300; MIC, time 6 min", "value": "493 and 482 and 491"},
      {"measurement": "Fluorescence intensity", "setting": "MRSA USA 300; MIC, time 7 min", "value": "492 and 497 and 498"},
      {"measurement": "Fluorescence intensity", "setting": "MRSA USA 300; MIC, time 8 min", "value": "503 and 492 and 487"},
      {"measurement": "Fluorescence intensity", "setting": "MRSA USA 300; MIC, time 9 min", "value": "489 and 478"},
      {"measurement": "Fluorescence intensity", "setting": "MRSA USA 300; MIC, time 10 min", "value": "493 and 502 and 482"},
      {"measurement": "Fluorescence intensity", "setting": "[1]; 2 × MIC, time 40 min", "value": "34702 and 33547 and 34912"},
      {"measurement": "Fluorescence intensity", "setting": "[1]; 2 × MIC, time 45 min", "value": "37136 and 36211 and 37338"},
      {"measurement": "Fluorescence intensity", "setting": "[1]; 2 × MIC, time 50 min", "value": "39163 and 38232 and 39254"},
      {"measurement": "Fluorescence intensity", "setting": "[1]; 2 × MIC, time 55 min", "value": "40970 and 40291 and 41421"},
      {"measurement": "Fluorescence intensity", "setting": "[1]; 2 × MIC, time 60 min", "value": "42312 and 42003 and 42823"},
      {"measurement": "Fluorescence intensity", "setting": "[1]; 4 × MIC, time 40 min", "value": "62682 and 62893 and 61497"},
      {"measurement": "Fluorescence intensity", "setting": "[1]; 4 × MIC, time 45 min", "value": "63382 and 64110 and 63070"},
      {"measurement": "Fluorescence intensity", "setting": "[1]; 4 × MIC, time 50 min", "value": "63978 and 63270 and 64577"},
      {"measurement": "Fluorescence intensity", "setting": "[1]; 4 × MIC, time 55 min", "value": "64006 and 65215 and 63852"},
      {"measurement": "Fluorescence intensity", "setting": "[1]; 4 × MIC, time 60 min", "value": "64714 and 64385 and 66471"},
      {"measurement": "Fluorescence intensity", "setting": "[1]; 8 × MIC, time 40 min", "value": "66903 and 66727"},
      {"measurement": "Fluorescence intensity", "setting": "[1]; 8 × MIC, time 45 min", "value": "68176 and 67638 and 67671"},
      {"measurement": "Fluorescence intensity", "setting": "[1]; 8 × MIC, time 50 min", "value": "68008 and 67714 and 67439"},
      {"measurement": "Fluorescence intensity", "setting": "[1]; 8 × MIC, time 55 min", "value": "68663 and 68065 and 68105"},
      {"measurement": "Fluorescence intensity", "setting": "[1]; 8 × MIC, time 60 min", "value": "69269 and 68651 and 69113"},
      {"measurement": "Fluorescence intensity", "setting": "[1]; MIC, time 45 min", "value": "21004 and 21167 and 20800"},
      {"measurement": "Fluorescence intensity", "setting": "[1]; MIC, time 50 min", "value": "23259 and 23407 and 23194"},
      {"measurement": "Fluorescence intensity", "setting": "[1]; MIC, time 55 min", "value": "25402 and 25608 and 25260"},
      {"measurement": "Fluorescence intensity", "setting": "[1]; MIC, time 60 min", "value": "27605 and 27457 and 27329"}
    ]}
  ]
}
